PubChem BioAssay AID1259424 | University of Nebraska Medical Center | 2018
Here is a random part of about 14,000 deposited reagents. 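Higher correlation or smaller distance means closer resemblance to KSR1 loss; control wells, including KSR1 knockdowns, recur on many plates.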 The numbers tell different reagents against one gene apart. Not stated in the record: the time to read-out.

- Test: 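Find knockdowns that reproduce the expression shifts seen after KSR1 loss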 (primary screen)
- Cells: human HCT116 colon cancer cells
- Knock-down reagent: siRNA pool against human genes, 50 nM
- Measured: 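Six signature mRNAs by branched-DNA multiplex assay, scaled to two housekeeping genes and non-targeting median, log2; matched to mean KSR1 knockdown profile by Pearson correlation and euclidean distance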
- Direction: mean correlation with KSR1 profile and KSR1 correlation: higher = expression change more like KSR1 knockdown; mean distance from KSR1 profile: higher = expression change less like KSR1 knockdown

mean correlation with KSR1 profile	mean distance from KSR1 profile	KSR1 correlation, replicate 1	KSR1 correlation, replicate 2	KSR1 correlation, replicate 3	gene knocked down	reagent no.
0.74	3.2	0.791	0.717	0.742	QDPR (quinoid dihydropteridine reductase)	1
-0.418	3.06	-0.238	-0.471	-0.339	ANKRD1 (ankyrin repeat domain 1)	1
-0.612	1.52	-0.325	-0.577	-0.563	ADIPOR2 (adiponectin receptor 2)	1
0.47	0.984	0.357	0.542	0.392	GREB1 (growth regulating estrogen receptor binding 1)	1
0.542	3.22	0.686	0.668	0.331	SERPINB5 (serpin family B member 5)	1
-0.062	4.12	-0.0879	0.0857	-0.252	CD80 (CD80 molecule)	1
0.819	1.7	0.688	0.838	0.799	MARVELD1 (MARVEL domain containing 1)	1
0.519	1.98	0.332	-0.00938	0.542	ZNF503 (zinc finger protein 503)	1
-0.649	1.85	-0.522	-0.813	-0.716	JPH2 (junctophilin 2)	1
-0.478	2.59	-0.431	-0.423	-0.607	ACOT7 (acyl-CoA thioesterase 7)	1
-0.149	3.69	-0.155	-0.179	-0.212	MAGEA4 (MAGE family member A4)	1
-0.284	1.35	-0.367	0.0032	-0.15	EPB41L5 (erythrocyte membrane protein band 4.1 like 5)	1
0.806	1.52	0.822	0.786	0.76	DRD1 (dopamine receptor D1)	1
-0.46	4.08	-0.529	-0.348	-0.484	DCAF1 (DDB1 and CUL4 associated factor 1)	1
-0.275	3.63	-0.429	-0.365	-0.513	GPC3 (glypican 3)	1
-0.771	2.01	-0.6	-0.93	-0.654	PLCH2 (phospholipase C eta 2)	1
-0.693	2.67	-0.876	-0.731	-0.255	MLLT1 (MLLT1 super elongation complex subunit)	1
-0.34	2.06	-0.254	-0.616	-0.328	GIGYF1 (GRB10 interacting GYF protein 1)	1
0.27	2.63	-0.0263	0.295	0.334	LRRC3 (leucine rich repeat containing 3)	1
-0.882	5.16	-0.902	-0.626	-0.497	LRRC3 (leucine rich repeat containing 3)	2
-0.108	2.61	-0.0912	-0.0228	-0.385	CD96 (CD96 molecule)	1
0.442	1.53	0.459	0.448	-0.0849	ANP32E (acidic nuclear phosphoprotein 32 family member E)	1
0.0459	1.46	-0.0225	-0.446	-0.03	ZNF106 (zinc finger protein 106)	1
-0.278	3.5	-0.16	-0.446	-0.329	KAT5 (lysine acetyltransferase 5)	1
0.222	2.06	-0.0658	0.207	0.199	SP100 (SP100 nuclear body protein)	1
-0.102	2.59	-0.519	-0.2	0.00976	ZNF285 (zinc finger protein 285)	1
-0.497	1.84	-0.37	-0.537	-0.645	USP4 (ubiquitin specific peptidase 4)	1
-0.615	1.87	-0.556	-0.646	-0.436	TPSD1 (tryptase delta 1)	1
-0.784	2.53	-0.458	-0.61	-0.766	CHPF2 (chondroitin polymerizing factor 2)	1
-0.0965	3.35	-0.118	0.0534	-0.0451	LARS1 (leucyl-tRNA synthetase 1)	1
0.0154	2.45	0.0303	0.169	-0.0361	PLBD1 (phospholipase B domain containing 1)	1
0.115	1.3	-0.0846	0.119	0.278	SEC24A (SEC24 homolog A, COPII component)	1
-0.0194	2.39	-0.291	-0.329	-0.217	TFCP2L1 (transcription factor CP2 like 1)	1
-0.5	1.37	-0.278	-0.569	-0.162	ZNF189 (zinc finger protein 189)	1
-0.0353	2.94	-0.138	-0.016	0.0701	CXXC5 (CXXC finger protein 5)	1
-0.613	2.4	-0.515	-0.613	-0.832	AKR1C2 (aldo-keto reductase family 1 member C2)	1
-0.237	1.05	0.0216	0.29	-0.56	IL6 (interleukin 6)	1
0.784	1.76	0.872	0.783	0.612	RHOBTB1 (Rho related BTB domain containing 1)	1
-0.137	1.92	-0.0356	-0.0584	-0.475	AOX1 (aldehyde oxidase 1)	1
0.491	0.774	0.479	0.58	0.689	SLC35H1	1
0.0689	2.64	0.162	-0.184	-0.107	P3H1 (prolyl 3-hydroxylase 1)	1
-0.13	2.97	0.102	-0.0472	-0.208	MUC7 (mucin 7, secreted)	1
-0.244	1.92	-0.00606	-0.686	-0.334	PRSS12 (serine protease 12)	1
-0.427	3.29	-0.557	-0.369	-0.436	SPRR1B (small proline rich protein 1B)	1
0.233	2.38	0.406	-0.185	0.196	GUCA2A (guanylate cyclase activator 2A)	1
-0.398	2.05	-0.13	-0.616	-0.503	HPS1 (HPS1 biogenesis of lysosomal organelles complex 3 subunit 1)	1
-0.704	1.72	-0.775	-0.671	-0.756	CLDN4 (claudin 4)	1
-0.5	1.41	-0.712	-0.565	-0.592	INKA2 (inka box actin regulator 2)	1
0.129	2.76	0.295	-0.0603	0.118	UBE2C (ubiquitin conjugating enzyme E2 C)	1
-0.404	1.2	-0.558	-0.483	-0.115	CLEC16A (C-type lectin domain containing 16A)	1

Just “mean distance from KSR1 profile” (2 entries from above):
TFCP2L1 (transcription factor CP2 like 1): 2.39
ZNF189 (zinc finger protein 189): 1.37
